Experiment in all cases: co-IP
In test [1] the target is T1, GFP-CCDC38 (coiled-coil domain containing 38) (UniProt Q8CDN8).
T1 sequence: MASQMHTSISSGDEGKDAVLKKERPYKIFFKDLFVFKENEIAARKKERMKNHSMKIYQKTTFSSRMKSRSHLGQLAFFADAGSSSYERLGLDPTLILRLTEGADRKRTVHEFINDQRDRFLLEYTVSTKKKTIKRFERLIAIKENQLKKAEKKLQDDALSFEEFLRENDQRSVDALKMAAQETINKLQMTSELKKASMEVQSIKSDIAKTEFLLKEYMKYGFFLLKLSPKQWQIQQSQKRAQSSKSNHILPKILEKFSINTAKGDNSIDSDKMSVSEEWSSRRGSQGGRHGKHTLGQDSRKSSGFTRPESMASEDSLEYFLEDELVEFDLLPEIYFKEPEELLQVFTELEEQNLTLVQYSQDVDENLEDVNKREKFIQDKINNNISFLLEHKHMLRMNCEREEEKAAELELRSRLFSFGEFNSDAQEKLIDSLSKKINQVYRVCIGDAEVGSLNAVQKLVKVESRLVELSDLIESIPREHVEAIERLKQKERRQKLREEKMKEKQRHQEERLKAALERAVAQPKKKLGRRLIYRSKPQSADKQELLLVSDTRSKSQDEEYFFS

Chains of the proteins cited; added tags and fusions are not shown.
UniProt Q61025: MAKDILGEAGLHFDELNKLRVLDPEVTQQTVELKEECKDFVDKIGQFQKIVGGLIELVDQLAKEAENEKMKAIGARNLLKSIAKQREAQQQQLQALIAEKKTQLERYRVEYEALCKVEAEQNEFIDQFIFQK

The target in the next test is T2, MYC-CCDC42 (UniProt Q5SV66).
T2 sequence: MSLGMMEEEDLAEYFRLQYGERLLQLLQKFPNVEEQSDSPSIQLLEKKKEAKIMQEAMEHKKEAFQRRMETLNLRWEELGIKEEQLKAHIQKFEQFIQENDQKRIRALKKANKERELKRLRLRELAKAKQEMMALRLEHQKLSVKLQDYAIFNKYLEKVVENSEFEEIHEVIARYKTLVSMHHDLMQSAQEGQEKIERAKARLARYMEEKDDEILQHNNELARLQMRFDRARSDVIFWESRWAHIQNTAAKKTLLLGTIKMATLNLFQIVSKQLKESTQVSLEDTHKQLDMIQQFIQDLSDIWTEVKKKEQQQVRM

Test [2] concerns the target T3, HA-ODF2 (outer dense fibrous 2) (UniProt A3KGV1).
T3 sequence: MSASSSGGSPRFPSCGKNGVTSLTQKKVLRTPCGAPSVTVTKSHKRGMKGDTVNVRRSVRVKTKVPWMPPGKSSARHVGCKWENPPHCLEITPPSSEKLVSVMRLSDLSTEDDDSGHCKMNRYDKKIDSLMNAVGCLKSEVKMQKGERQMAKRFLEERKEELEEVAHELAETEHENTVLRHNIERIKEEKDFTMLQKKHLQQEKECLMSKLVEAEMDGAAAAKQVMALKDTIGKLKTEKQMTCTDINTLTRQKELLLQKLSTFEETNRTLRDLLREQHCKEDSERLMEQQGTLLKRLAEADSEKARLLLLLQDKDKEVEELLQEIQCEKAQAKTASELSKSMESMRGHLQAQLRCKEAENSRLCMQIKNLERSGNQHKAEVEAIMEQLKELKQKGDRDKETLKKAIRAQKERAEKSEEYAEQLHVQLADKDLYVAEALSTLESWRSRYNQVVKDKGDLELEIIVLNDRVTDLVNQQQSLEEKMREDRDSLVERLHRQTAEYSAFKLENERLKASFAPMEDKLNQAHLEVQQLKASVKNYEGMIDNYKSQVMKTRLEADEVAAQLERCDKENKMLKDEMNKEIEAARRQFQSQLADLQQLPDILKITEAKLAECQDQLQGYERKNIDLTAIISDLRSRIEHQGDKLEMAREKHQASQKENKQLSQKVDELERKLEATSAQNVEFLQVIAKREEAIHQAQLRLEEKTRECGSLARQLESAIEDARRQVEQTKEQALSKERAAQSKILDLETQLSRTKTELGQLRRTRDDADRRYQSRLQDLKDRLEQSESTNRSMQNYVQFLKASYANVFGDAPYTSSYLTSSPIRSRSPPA

The target in test [3] is T1, GFP-CCDC38 (coiled-coil domain containing 38). The source holds these as a separate data set.

Like-named read-outs stand apart in the source and are kept apart here. Results are given in words; binding and its absence hold for the method and conditions named. In cells and extracts the contact can be indirect. Some entries that bind do so weakly or less than the wild type. Where a sequence is shown, tags or fusion partners need not be part of it.

Consider FLAG-IFT20 (from UniProt Q61025 1-132), for which, in test [1], the binding result was “no binding”.

B1: GFP-CCDC38 (coiled-coil domain containing 38) (protein, UniProt Q8CDN8 1-563)
chain: MASQMHTSISSGDEGKDAVLKKERPYKIFFKDLFVFKENEIAARKKERMKNHSMKIYQKTTFSSRMKSRSHLGQLAFFADAGSSSYERLGLDPTLILRLTEGADRKRTVHEFINDQRDRFLLEYTVSTKKKTIKRFERLIAIKENQLKKAEKKLQDDALSFEEFLRENDQRSVDALKMAAQETINKLQMTSELKKASMEVQSIKSDIAKTEFLLKEYMKYGFFLLKLSPKQWQIQQSQKRAQSSKSNHILPKILEKFSINTAKGDNSIDSDKMSVSEEWSSRRGSQGGRHGKHTLGQDSRKSSGFTRPESMASEDSLEYFLEDELVEFDLLPEIYFKEPEELLQVFTELEEQNLTLVQYSQDVDENLEDVNKREKFIQDKINNNISFLLEHKHMLRMNCEREEEKAAELELRSRLFSFGEFNSDAQEKLIDSLSKKINQVYRVCIGDAEVGSLNAVQKLVKVESRLVELSDLIESIPREHVEAIERLKQKERRQKLREEKMKEKQRHQEERLKAALERAVAQPKKKLGRRLIYRSKPQSADKQELLLVSDTRSKSQDEEYFFS
Consider B1, for which the binding result (with MYC-CCDC42; in test [2]) was “binds” throughout.

B2: MYC-IFT88 (intra-flagellar transport protein 88) (protein, UniProt Q61371 1-824)
chain: MENVHLAPETDEDDLYSGFNDYNPAYDTEELENDTGFQQAVRTSHGRRPPVTAKIPSTAVSRPIATGYGSKTSLTSSMGRPMTGTIQDGVARPMTAVRAAGFSKAALRGSAFDPLGQSRGPAPPLEAKNEDSPEEKIRQLEKKVNELVEESCIANSCGDLKLALEKAKDAGRKERVLVRQREQVTSPENINLDLTYSVLFNLASQYSANEMYAEALNTYQVIVKNKMFSNAGRLKVNMGNIYLKQRNYSKAIKFYRMALDQIPSVHKEMRIKIMQNIGITFIKTGQYSDAINSFEHIMSMAPSLKAGFNLILSCFAIGDREKMKKAFQKLIAVPLEIDEDDKYISPSDDPHTNLLIEAIKNDHLRQMERERKAMAEKYIMTAAKLIAPVIEASFAVGYNWCVEVVKASQYVELANDLEINKAITYLRQKDFNQAVDTLKMFEKKDSRVKSAAATNLSFLYYLENEFAQASSYADLAVNSDRYNPSALTNKGNTVFANGDYEKAAEFYKEALRNDSSCTEALYNIGLTYKKLNRLDEALDSFLKLHAILRNSAQVLCQIANIYELMEDPNQAIEWLMQLISVVPTDSQALSKLGELYDSEGDKSQAFQYYYESYRYFPSNIEVIEWLGAYYIDTQFCEKAIQYFERASLIQPTQVKWQLMVASCFRRSGNYQKALDTYKEIHRKFPENVECLRFLVRLCTDIGLKEVQEYATKLKRLEKMKEMREQRIKSGRDSSGGSRSKREGSAGSDSGQNNSASSKSERLSAKLRALPGTDEPYESSGNKEIDASYVDPLGPQIERPKTAAKKRIDEDDFADEELGDDLLPE
Consider B2, for which, in test [3], the binding entry was “binds”.

B3: HA-ODF2 (outer dense fibrous 2) (protein, UniProt A3KGV1 1-830)
chain: MSASSSGGSPRFPSCGKNGVTSLTQKKVLRTPCGAPSVTVTKSHKRGMKGDTVNVRRSVRVKTKVPWMPPGKSSARHVGCKWENPPHCLEITPPSSEKLVSVMRLSDLSTEDDDSGHCKMNRYDKKIDSLMNAVGCLKSEVKMQKGERQMAKRFLEERKEELEEVAHELAETEHENTVLRHNIERIKEEKDFTMLQKKHLQQEKECLMSKLVEAEMDGAAAAKQVMALKDTIGKLKTEKQMTCTDINTLTRQKELLLQKLSTFEETNRTLRDLLREQHCKEDSERLMEQQGTLLKRLAEADSEKARLLLLLQDKDKEVEELLQEIQCEKAQAKTASELSKSMESMRGHLQAQLRCKEAENSRLCMQIKNLERSGNQHKAEVEAIMEQLKELKQKGDRDKETLKKAIRAQKERAEKSEEYAEQLHVQLADKDLYVAEALSTLESWRSRYNQVVKDKGDLELEIIVLNDRVTDLVNQQQSLEEKMREDRDSLVERLHRQTAEYSAFKLENERLKASFAPMEDKLNQAHLEVQQLKASVKNYEGMIDNYKSQVMKTRLEADEVAAQLERCDKENKMLKDEMNKEIEAARRQFQSQLADLQQLPDILKITEAKLAECQDQLQGYERKNIDLTAIISDLRSRIEHQGDKLEMAREKHQASQKENKQLSQKVDELERKLEATSAQNVEFLQVIAKREEAIHQAQLRLEEKTRECGSLARQLESAIEDARRQVEQTKEQALSKERAAQSKILDLETQLSRTKTELGQLRRTRDDADRRYQSRLQDLKDRLEQSESTNRSMQNYVQFLKASYANVFGDAPYTSSYLTSSPIRSRSPPA
Take B3: the binding entry in test [3] is “binds”.

For the origin of these results see paper doi:10.1101/2022.01.10.475757.
